From patent publication US7880021B2, “Compounds and kits for the detection and the quantification of cell apoptosis” (Centre National de la Recherche Scientifique (CNRS), priority 2005, dated 2011)

Experiment: Fluorescence response to surface charge in large unilamellar vesicles
Settings: LUV, excitation 400 nm, probe 0.1 μM

1-dodecanaminium, N-[[2-[4-Diethylaminophenyl]-3-hydroxychromon-6-yl]-methyl]-N-methyl-N-(3-sulfopropyl)-, inner salt [F2N12S]
relative intensity of the short-wavelength band, anionic vesicles (PG and PS) versus neutral PC vesicles: higher relative intensity of the short-wavelength band | relative intensity of the short-wavelength band, neutral PE vesicles: significantly smaller increase
